1 molecule from patent US20170209529A1 (BRIGHAM AND WOMEN S HOSPITAL, published 2017) can be followed below.

The chains behind the UniProt entries cited, without tags or fusion partners. Where a name states a change or a piece, a line headed by the entry shows the natural chain unless it says otherwise.
UniProt P55899: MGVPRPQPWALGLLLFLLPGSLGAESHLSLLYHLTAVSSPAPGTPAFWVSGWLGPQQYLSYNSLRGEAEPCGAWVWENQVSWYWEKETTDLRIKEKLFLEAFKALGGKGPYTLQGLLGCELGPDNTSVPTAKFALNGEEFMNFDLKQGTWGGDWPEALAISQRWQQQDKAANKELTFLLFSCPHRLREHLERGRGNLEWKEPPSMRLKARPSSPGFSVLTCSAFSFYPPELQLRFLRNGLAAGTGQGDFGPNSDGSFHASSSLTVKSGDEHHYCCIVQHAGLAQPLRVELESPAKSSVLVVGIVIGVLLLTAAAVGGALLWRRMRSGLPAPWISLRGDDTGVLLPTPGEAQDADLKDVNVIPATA

For the assay, the target named is T1, soluble human FcRn (shFcRn) (human, UniProt P55899 24-297; P61769 21-119).
T1 construct: For crystallography it was expressed in CHOK1SV cells and deglycosylated with PNGaseF; biotinylated for phage selection; also called hFcRn/β2m; FcRn-biotin
Briefly: photo-cross-linking competition: sh-FcRn pre-incubated with 100 eq unlabeled peptide, then 2 eq biotinylated Bpa-516, UV 365 nm, biotin blot [Cont.].

These are yes or no findings as the source states them, for the method shown. Some binding calls cover weakened binding; strength is not graded here.

Turning to VMTCWWDQGFECAKL (the two C printed larger on the sheet (C4, C12)) [SYN516], the binding entry is given as “binds”.
